Results are given in words; binding and its absence hold for the method and conditions named. Binding can be weak; no strength is given.

Experiment [1] has as its target cynomolgus monkey C5a (cynomolgus monkey). The experiment in a line: ELISA on cynomolgus monkey C5a (FIG. 2C). On the technique in general: In an ELISA, binding on a coated surface is turned into a signal by an enzyme label.
For experiment [2] the target is unchanged. The experiment in a line: ELISA, plate coated with cynomolgus monkey C5a, full-length antibody titrated, OD410.

B1: Cab01 (reformatted as human IgG4) (antibody, V domains shown)
VH: EVQLVESGGGMVQPGGSLRVSCAASGFTFTKYYMQWVRQAPGKGPEWVGLIRNKANGGTAEYVASVKDRFTISRDDSKSIAYLQMSSLKTEDTAVYYCVMRDNGYHWGQGVLVTVSS
VL: DIVLTQTPLSLPVTPGEPASISCRSSQRLLHSDGYTYLDWYLQKPGQSPQLLIYGGSNRASGVPDRFSGSGSGTDFTLKISKVEAEDVGVYYCMQHKALPLTFGGGTKVEIK
With B1, the binding result in experiment [1] and in experiment [2] was “binds” in each case.

B2: Cab13 (reformatted as human IgG4) (antibody, V domains shown)
VH: VVQLVESGGGLVQPGGSLKVSCAASGFTFSDYYMQWVRQAPGKGPEWVGLIRNKAIGGTTQYAASVKGRFTISRDDSKSIVYLQMSSLKTEDTAVYYCVSRAGPPGLSWGQGVLVTISS
VL: DIVMIQNPLSLPVTPGEPASISCRSSQSLLASDGYNYMDWYLQKPGQSPKVLIYGGSNRASGVPDRFSGSGSGTDFTLKITKVEAEDVGIYYCMQHKVLPPTFGQGTKLEIK
B2: the binding result in experiment [1] and in experiment [2] was “binds” each time.

B3: Cab03 (reformatted as human IgG4) (antibody, V domains shown)
VH: EVQLVESGGGLVQPGGSLKVSCAASGFIFSDYYMQWVRQAPGKGPEWVGLIRKKVNGGTTEYAASVKGRFTISRDDSKSIVYLQMSSLKIEDTAVYYCVSRAGPPGLTWGQGVLVTVSS
VL: DIVLTQTPLSLAVSPGEPASISCRSSQSLLASDGYTYLDWYLQKPGQSPQILIYGGSNRASGVPDRFSGRGSGTDFTLKITKVEAEDVGVYYCLQHRALPPTFGQGTKLEIK
With B3, the binding result in experiment [1] and in experiment [2] was “binds” throughout.

B4: Cab05-IgG4 (antibody, V domains shown)
VH: EMQLVESGGGLVQPGGSLRLSCAASGFTFSDYYMQWVRQAPGKGPEWVGLIRNKAVGGTTQYAASVKGRFTISRDDSKNSVYLQMNSLKTEDTAVYYCVSRAGPPGLSWGQGVLVTVSS
VL: DIVMTQSPLSLPVTPGEPASISCRSSQSLLASDGYNYIDWYLQKPGQSPQLLIYGGSNRASGVPDRFSGSGSGTDFTLKISRVEAEDVGVYFCLQHRALPPTFGQGTKLEIK
notes: Full-length human IgG4 with a human kappa or lambda light chain constant domain
For the molecule B4, the binding entry in experiment [1] and in experiment [2] was “binds” throughout.

B5: Cab42-IgG1 (antibody, V domains shown)
VH: EMQLVESGGGLVQPGGSLRLSCAASGFTFSDYYMQWVRQAPGKGPEWVGLIRNKAVGETTQYAASVKGRFTISRDDSKNSVYLQMNSLKTEDTAVYYCVSRAGPPGLSWGQGVLVTVSS
VL: DIVMTQSPLSLPVTPGEPASISCRSSQSLLASDAYNYIDWYLQKPGQSPQLLIYGGSNRASGVPDRFSGSGSGTDFTLKISRVEAEDVGVYFCLQHRALPPTFGQGTKLEIK
notes: Full-length human IgG1; It was biotinylated in the peptide-Fc ELISA
Consider B5, for which the binding entry in experiment [1] and in experiment [2] was “binds” each time.

Values taken from patent US20230257454A1 (STAIDSON BEIJING BIOPHARMACEUTICALS, published 2023).
